Taken from: PubChem BioAssay AID1259254 (NCATS, 2017)
This is an unselected part of about 59,000 deposited reagents. About 1,550 of all reagents (2.6%) count as active. 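G2 share is only a proxy for re-replication; each gene was hit by three separate siRNAs, and active genes were retested.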 Reagents against one gene are numbered here. Further read-outs or replicates are left out here. Not stated in the record: the amount of reagent.

- Screen: 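Gene knock-downs that lead to re-replication, shown by excess G2 DNA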 (primary screen)
- Cell system: human HCT116 colorectal cancer cells
- Reagents: single siRNA against human genes
- Time to read-out: 3 days
- Detection: 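Nuclei stained with Hoechst and imaged; cell-cycle phase assigned by DNA content; G2 share scaled per plate, non-targeting siRNA 0%, GMNN siRNA 100%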
- Scale: G2 robust z-score and G2 cells, % of GMNN control: higher = more G2 cells, more excess DNA replication
- Call rule: 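Active siRNAs have a G2 robust z of 5 or more median absolute deviations over the median, which in these data means about 38% or higher of GMNN control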

VAV1 #1: G2 robust z-score = 2.08; G2 cells, % of GMNN control = 17.6; outcome = inactive
VAV1 #2: G2 robust z-score = -0.847; G2 cells, % of GMNN control = -2.99; outcome = inactive
VAV1 #3: G2 robust z-score = -0.109; G2 cells, % of GMNN control = 2.2; outcome = inactive
TMEM170A #1: G2 robust z-score = -0.0767; G2 cells, % of GMNN control = 2.43; outcome = inactive
TMEM170A #2: G2 robust z-score = -1.16; G2 cells, % of GMNN control = -5.17; outcome = inactive
TMEM170A #3: G2 robust z-score = -0.738; G2 cells, % of GMNN control = -2.23; outcome = inactive
MSL3 #1: G2 robust z-score = -0.502; G2 cells, % of GMNN control = -0.567; outcome = inactive
MSL3 #2: G2 robust z-score = -0.312; G2 cells, % of GMNN control = 0.77; outcome = inactive
MSL3 #3: G2 robust z-score = 1.3; G2 cells, % of GMNN control = 12.1; outcome = inactive
VPS37B #1: G2 robust z-score = 0.577; G2 cells, % of GMNN control = 7.02; outcome = inactive
VPS37B #2: G2 robust z-score = -0.211; G2 cells, % of GMNN control = 1.48; outcome = inactive
VPS37B #3: G2 robust z-score = 0.731; G2 cells, % of GMNN control = 8.11; outcome = inactive

As entered above.
VAV1 #3, G2 cells, % of GMNN control: 2.2
For “G2 robust z-score”, TMEM170A #3 reads -0.738
Result for TMEM170A #1 in “G2 robust z-score”: -0.0767
MSL3 #1, outcome → inactive

The results go on:
CLDN10 #1: G2 robust z-score = -0.799; G2 cells, % of GMNN control = -2.65; outcome = inactive
CLDN10 #2: G2 robust z-score = 2.96; G2 cells, % of GMNN control = 23.8; outcome = inactive
CLDN10 #3: G2 robust z-score = -0.102; G2 cells, % of GMNN control = 2.25; outcome = inactive
DBX2 #1: G2 robust z-score = 0.209; G2 cells, % of GMNN control = 4.43; outcome = inactive
DBX2 #2: G2 robust z-score = -0.177; G2 cells, % of GMNN control = 1.72; outcome = inactive
DBX2 #3: G2 robust z-score = 1.16; G2 cells, % of GMNN control = 11.1; outcome = inactive
NIBAN1 #1: G2 robust z-score = 0.284; G2 cells, % of GMNN control = 4.97; outcome = inactive
NIBAN1 #2: G2 robust z-score = 0.754; G2 cells, % of GMNN control = 8.27; outcome = inactive
NIBAN1 #3: G2 robust z-score = 0.44; G2 cells, % of GMNN control = 6.06; outcome = inactive
MRPL51 #1: G2 robust z-score = -0.228; G2 cells, % of GMNN control = 1.37; outcome = inactive
MRPL51 #2: G2 robust z-score = -0.512; G2 cells, % of GMNN control = -0.636; outcome = inactive
MRPL51 #3: G2 robust z-score = -1.01; G2 cells, % of GMNN control = -4.14; outcome = inactive
